Experimental data published in patent US7059206B1 (priority 1999, dated 2006).
For at least one compound, name, drawing or mass did not settle the structure.

How the values were obtained:
[1] = Laboratory calibration of chelating (inorganic) prototype passive sampler; conditions: 500 mg/l, 300 ml H2O, 1–5 hours, magnetic stirring, Nafion-coated cellulose acetate membrane, chelating disk
[2] = Effect of temperature on uptake rate by prototype passive sampler; conditions: sampler fitted with polyethylene membrane; 4, 7, 11 and 15° C., 140 rpm; slopes have units of K
[3] = Uptake by prototype passive sampler at constant exposure concentration over time; conditions: sampler fitted with polyethylene membrane, 140 rpm, 11° C.
Description: In each experiment, the prototype device was tested fitted with both the polyethylene and the polysulphone membrane.
Accumulation of organic analytes by a passive sampling system fitted with a C18 Empore™ disk as receiving phase and either a […] pore size polysulphone membrane or a polyethylene membrane as a diffusion-limiting membrane material. Accumulation was measured following exposure of the system to an aqueous solution of analytes at constant concentration, stirring speed (140 rpm) and temperature (11° C.). Linear regressions of the accumulation factor, AF, (ml/device) on time were plotted and are given with the […] (R^2) in table 7. AF=mass of analytes in the tested compartment (ng/device)/mean concentration of the analyte in the aqueous phase during deployment (ng/ml).
The pattern of uptake in each case is linear with time over deployment periods ranging from several hours to 9 days. R^2 values in each case are above 0.9. Linear regressions plotted through the data points show the lag time between exposure of the device to an aqueous solution of each analyte and its uptake into the receiving phase of the passive sampling system. In effect this is a measurement of the response time of a particular prototype passive sampling system to a particular compound.

[4] = cited from earlier work

[Cu] [Copper]
Calibration line, time-exposed passive sampler (y concentration in mg/l, x time in hours) [1]: y=78.182x+104.07

ClC1=C(Cl)[C@]2(Cl)[C@@H]3[C@@H]4C[C@@H]([C@H]5O[C@@H]45)[C@@H]3[C@@]1(Cl)C2(Cl)Cl [Dieldrin]
Linear regression of natural logarithm of uptake slope on reciprocal of absolute temperature [2]: Y = −9153x + 34.19
Linear regression of accumulation factor AF (ml/device) on time [3]: Y = 9.16x − 100.6
Log Kow [4]: 4.58

Clc1ccc(Cl)c(-c2cc(Cl)ccc2Cl)c1 [PCB 52]
Linear regression of natural logarithm of uptake slope on reciprocal of absolute temperature [2]: Y = −3099x + 14.06
Linear regression of accumulation factor AF (ml/device) on time [3]: Y = 29.55x + 149.5
Log Kow [4]: 6.10

[Zn] [Zinc]
Calibration line, time-exposed passive sampler (y concentration in mg/l, x time in hours) [1]: y=94.554x+99.655
